About 170 (0.05%) of roughly 340,000 compounds were called active. Inconclusive means that the source gave no clear call. Such entries were picked first, then a sample of the others. Calls come from the whole dose curve; as a rule, active = well fitted inhibition curve with a large enough effect in the signal ratio, with a control signal flat (not every such curve was filed as active); inconclusive = small, poorly fitted or top-dose-only effect, or effect the other way, or a change in a side signal; inactive = flat fitted curve, though single readings scatter; the % refers to the signal ratio. Where the call is inconclusive, the potency comes from a doubtful curve fit.
Assay: qHTS Assay to Find Inhibitors of Chronic Active B-Cell Receptor Signaling;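 for activity change, negative = inhibition: plate controls were basal doxycycline-induced cells for no effect and cells given 10 µM MG132 for full effect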
Conditions: ABC-DLBCL IkBa-CBG/CBR reporter, luminescence ratio (green luciferase fused to IkBa over red control in TMD8 lymphoma cells), 4 h; activity change, negative = inhibition: at 46.1 µM (top of the series)
Outline: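 Compounds up to 46 uM were incubated four hours with TMD8 cells whose green CBG68 luciferase is fused to IkappaBalpha; red CBR luminescence normalised the signal, and concentration-effect curves were fitted to fusion, red and ratio data.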
Potency is the fitted concentration of half-maximal effect.

| SMILES | activity change, negative = inhibition | Potency |
| --- | --- | --- |
| COc1ccc([C@H]2CC(=O)C=C(c3ccc(O)cc3)C2)cc1OC | inconclusive: -2.75% | – |
| Cc1ccc(-n2cc(CN(C)Cc3nccn3C)c(-c3ccc(F)cc3)n2)cc1 | inactive: 16.9% | – |
| COc1ccc(CNC(=O)Cc2cn(C)c3ccccc23)c(OC)c1 | inconclusive: -12.1% | – |
| O=C(CN1CCCN(Cc2ccc(F)cc2)S1(=O)=O)NC1CCCC1 | inconclusive: 0.47% | – |
| CCCCOc1ccc(C(=O)NCC(=O)NNC(=O)c2ccco2)cc1 | inactive: 3.04% | – |
| COCCNC(=S)N1CCN(C(=O)C(=O)Nc2ccc(C(=O)OC)cc2)CC1 | inconclusive: -27% | – |
| CN(Cc1ccccc1)C(=O)c1[nH]cnc1C(=O)NCc1ccc(CNC(=O)OC(C)(C)C)cc1 | – | inconclusive: 29.1 µM [falling, single point] |
| Cn1ccnc1SCC(=O)Nc1ccc(Br)cc1C(F)(F)F | inconclusive: 7.29% | – |
| Cc1cccc(C(=O)N2CCc3cc(-c4csc(NC(=O)CN5CCCC5)n4)ccc32)c1 | inactive: 2.3% | – |
| Cc1ccc2nc(SCC(=O)N3CCCC3)[nH]c2c1 | inconclusive: 8.1% | – |
| CCn1c(CC(=O)Nc2ccc(C)cc2)nnc1SCC(=O)N1CCOCC1 | inactive: 2.11% | – |
| CC(C)NC(=S)N/N=C/c1c[nH]c2ccccc12 | – | inconclusive: 29.1 µM [falling, single point] |
| CC(=O)Nc1nnc(SCc2ccccc2F)s1 | inconclusive: 2.2% | – |
| COc1ccc(OC)c(C2C3=C(COC3=O)Nc3cc4c(cc32)OCO4)c1 (configuration not stated) | – | inconclusive: 5.01 µM [falling, partial curve, poor fit] |
| C[C@@H]1CN([C@@H](C)CO)C(=O)c2cc(NC(=O)CCC(F)(F)F)ccc2O[C@H]1CN(C)Cc1ccc(Cl)c(Cl)c1 | inactive: -1.51% | – |
| O=[N+]([O-])c1ccc2c(c1)C(O)n1nc(-c3ccccc3)nc1S2 (configuration not stated) | inconclusive: 18.1% | – |
| CC(C)COc1ccc(-c2nn(-c3ccccc3)cc2CO)cc1 | inconclusive: 2.88% | – |
| COc1ccc(C(=O)C2CCCN(C(=O)c3cc(C)on3)C2)cc1F (configuration not stated) | inconclusive: -16.1% | – |
| CCOc1ccccc1CN1CCN(Cc2nc3c(s2)CCCC3)CC1CCO (configuration not stated) | inactive: 2.63% | – |
| CC(=O)Oc1ccc2nc(-c3ccco3)oc(=O)c2c1 | – | inconclusive: 35.5 µM [rising, single point] |
| Cc1ccc(NCc2ccccc2OCc2ccccc2F)cc1 | – | inconclusive: 11.6 µM [rising, partial curve, poor fit] |
| COc1cccc(NC(=O)Nc2ccc3c(c2)CCC3)c1 | – | inconclusive: 20 µM [falling, partial curve, poor fit] |

One compound at a time (already shown). Values in the order: activity change, negative = inhibition	Potency
CC(C)NC(=S)N/N=C/c1c[nH]c2ccccc12 is listed with –	inconclusive: 29.1 µM [falling, single point]
COc1ccc(OC)c(C2C3=C(COC3=O)Nc3cc4c(cc32)OCO4)c1 (configuration not stated) is listed with –	inconclusive: 5.01 µM [falling, partial curve, poor fit]
